Laboratory results reported in the supplement of paper PMC10735217.
Where a name gives a salt, the structure may show the parent alone. This is one part of the list. This data set is noisy: repeats of one test often differ as much as different tests do.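 Human kidney-derived cells stably carry a construct in which eight TEAD-binding elements drive luciferase, measured by luminescence in a drug-repurposing library screen. A hit is any compound whose signal exceeds the plate mean by more than five robust Z scores.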

System: HEK293A TEAD-LUC reporter
Assay: TEAD-luciferase reporter activity (YAP activation), robust Z score vs plate; higher = stronger YAP/TEAD activation
Conditions: 24 h

Compound	TEAD-luciferase reporter activity (compound concentration: 200 nM)	TEAD-luciferase reporter activity (compound concentration: 2 uM)	TEAD-luciferase reporter activity (compound concentration: 10 uM)
CC(C)(N)c1ccc(-c2nc(Nc3ccc(CCN4CCOCC4)cc3)ncc2C#N)cc1	inactive: -0.0341	inactive: -1.32	inactive: -0.567
CC(C)Oc1ccc(C(=O)NS(=O)(=O)c2ccc(N)cc2)cc1	inactive: -0.412	inactive: -2.19	inactive: -0.721
CCc1c(C)[nH]c2c1C(=O)C(CN(C)C)CC2 (stereo not given)	inactive: -1.69	inactive: -0.656	inactive: 1.09
CN(CCC(Oc1ccc(-c2ccccc2)cc1)c1ccc(F)cc1)CC(=O)O (stereo not given)	inactive: -0.123	inactive: -1.79	inactive: -1.58
CC(C)=CCC/C(C)=C/CC/C(C)=C/CCC1(C)CCc2cc(O)ccc2O1 (stereo not given) [Tocotrienol]	inactive: 0.157	inactive: -0.607	inactive: 1.18
CC(=O)N1CCC(NC(=O)c2ccc(F)cc2)CC1	inactive: -0.0605	inactive: -1.4	inactive: 1.27
CCCCCCCCCCCCNCC(O)CCCCCCCCCn1c(=O)c2c(ncn2C)n(C)c1=O (stereo not given)	inactive: -0.339	inactive: -0.317	inactive: -0.969
CN(C)CCOC1=Cc2ccccc2Sc2ccc(Cl)cc21 [zotepine]	inactive: -1.04	inactive: -0.117	inactive: 3.35
CCOc1ccc(NC(=S)Nc2ccc(OCC)cc2)cc1	inactive: -0.141	inactive: 1.6	inactive: -1.35
O=C(O)CCCC(=O)N1Cc2ccccc2CC2(CCCN2Cc2ccccc2)C1 (stereo not given)	inactive: 1.09		inactive: 2.33
CCN(CC)C(=S)SSC(=S)N(CC)CC	inactive: -1.05		inactive: -4.33
CCN(CC)C(=S)SSC(=S)N(CC)CC [Disulfiram]		inactive: -0.124	
O=C(O)c1ccc(NC2OC(CO)C(O)C2O)cc1 (stereo not given)	inactive: -1.5	inactive: -0.258	inactive: -0.898
CN1CCN(C2=Nc3ccccc3Nc3ccc(OS(=O)(=O)C(F)(F)F)cc32)CC1	inactive: 1.39	inactive: 0.807	inactive: 2.67
CCOC(=O)C1=C(c2ccc(-n3c(C)nc4cnccc43)cc2)NC(C)=C(C(=O)Nc2ccccn2)C1c1ccccc1Cl (stereo not given)	inactive: 0.0974	inactive: 0.476	inactive: 1.05
Cc1ccc(B(OC(=O)c2ncccc2O)c2cccc(Cl)c2)cc1Cl	inactive: 1.33	inactive: -0.154	inactive: 1.95
CN(C)Cc1ccc(S(=O)(=O)n2ccc(/C=C/C(=O)NO)c2)cc1 [resminostat]		active: 16.9	
CN(C)Cc1ccc(S(=O)(=O)n2ccc(/C=C/C(=O)NO)c2)cc1 [Resminostat (RAS2410)]	inactive: 3.89		active: 24.5
CCCCC/C=C\C/C=C\C/C=C\CCCCCCC(=O)O	inactive: -0.8	inactive: -1.86	inactive: 0.26
CN1C(=O)c2ccccc2C(O)c2ccccc21 (stereo not given)	inactive: -2.09	inactive: 0.797	inactive: -0.938
CN(C)[C@@H]1C(=O)C(C(=O)NCN2CCCC2)C(=O)[C@@]2(O)C(=O)C3C(=O)c4c(O)cccc4[C@@](C)(O)[C@H]3C[C@@H]12 (stereo not given in full) [Rolitetracycline]	inactive: -0.0561	inactive: -0.856	inactive: -0.142
O=C(c1ccccc1)c1cccc(NS(=O)(=O)C(F)F)c1 [diflumidone]	inactive: 1.01	inactive: -0.175	inactive: -1.41
O=c1[nH]c(=O)n([C@H]2C[C@H](O)[C@@H](CO)O2)cc1C(F)(F)F [trifluridine]	inactive: -0.612	inactive: -1.21	inactive: -0.693
Cc1onc(-c2c(F)cccc2Cl)c1C(=O)N[C@@H]1C(=O)N2[C@@H]1SC(C)(C)[C@@H]2C(=O)O [Flucloxacillin sodium]	inactive: -2.71	inactive: -0.977	inactive: 0.381
CCOC(=O)C1CCN(c2nc(N(C)S(=O)(=O)c3ccc(C#N)cc3)ccc2[N+](=O)[O-])CC1	inactive: -0.417	inactive: -0.435	inactive: -0.484
O=C([C@@H]1C[C@H](N2CCN(c3ncccn3)CC2)CN1)N1CCC(F)(F)C1 [Gosogliptin hydrochloride]	inactive: 0.161	inactive: 0.345	inactive: 1.59
CCCCNc1ccc(C(=O)OCCOCCOCCOCCOCCOCCOCCOCCOCCOC)cc1 [benzonatate polacrilex, Alitair]	inactive: -1.1		inactive: -1.69

Compound	TEAD-luciferase reporter activity (compound concentration: 200 nM)	TEAD-luciferase reporter activity (compound concentration: 2 uM)	TEAD-luciferase reporter activity (compound concentration: 10 uM)
CCCCNc1ccc(C(=O)OCCOCCOCCOCCOCCOCCOCCOCCOCCOC)cc1 [benzonatate polacrilex]		inactive: -0.929	
Cc1cccc(C)c1NC(=O)CN1CCN([C@H]2CCN(C(=O)c3cc(C(F)(F)F)cc(C(F)(F)F)c3)[C@H](Cc3ccccc3)C2)CC1	inactive: -1.2	inactive: 1.82	inactive: 0.752
CO/N=C(/C(=O)NC1C(=O)N2C(C(=O)[O-])=C(CSc3nc(=O)c(O)nn3C)CSC12)c1csc(N)n1 (stereo not given) [ceftriaxone]	inactive: -0.87		inactive: 1.13
CC(=O)NCCC(=O)N1Cc2ccccc2CC2(CCCCN2CC2CCNC2)C1 (stereo not given)	inactive: -1.3		inactive: -1
CC(C)=CCC/C(C)=C/CC(C/C=C(\C)CCC=C(C)C)(P(=O)([O-])[O-])P(=O)([O-])[O-] [Digeranyl bisphosphonate]	inactive: 0.529	inactive: 0.289	inactive: 1.11
C[C@H](C(=O)O)c1cccc(NC(=O)NCC(=O)N2[C@@H](c3ccccc3F)SC[C@H]2C(=O)OC(C)(C)C)c1	inactive: -1.53	inactive: 0.925	inactive: -1.04
CCCCc1nc(Cl)c(C(=O)OC(C)OC(=O)OCC)n1Cc1ccc(-c2ccccc2-c2nn[nH]n2)cc1 (stereo not given) [Elisartan potassium]	inactive: -0.265	inactive: -0.591	inactive: -0.357
NS(=O)(=O)c1cc2c(cc1C(F)(F)F)NC=NS2(=O)=O	inactive: -0.955	inactive: -0.778	inactive: 0.194
CC(=O)N(OCc1ccccc1)[C@@H]1c2cc(C#N)ccc2OC(C)(C)[C@H]1O	inactive: -1.01	inactive: -0.551	inactive: 3.18
O=C(CN1C(=O)c2ccccc2C1=O)NC1CCN(CCc2ccccc2)CC1	inactive: -0.776	inactive: -0.605	inactive: 0.295
CC1CCN(Cc2nc3c(c(=O)n(C)c(=O)n3C)n2CC(=O)c2ccccc2)CC1	inactive: -0.378	inactive: -1.9	inactive: 1.14
CC[N+](C)(CC)CC(O)COCC1COc2ccccc2O1 (stereo not given)	inactive: -1.84	inactive: 0.405	inactive: 4.97
COc1cc(N)cn[n+]1-c1ccccc1 [Amezinium methylsulfate]	inactive: -2.33	inactive: -1.56	inactive: -0.71
C[C@H](NC(=O)[C@@H](Cc1ccc2ccccc2c1)NC(=O)[C@@H](C)N)C(=O)N[C@@H](Cc1c[nH]c2ccccc12)C(=O)N[C@H](Cc1ccccc1)C(=O)N[C@@H](CCCCN)C(N)=O [Pralmorelin]	inactive: -1.27	inactive: 1.01	inactive: -0.547
CCN(CCNc1ccc(C)c2sc3ccccc3c(=O)c12)CC(C)(C)O	active: 7.5	inactive: -0.627	inactive: 1.49
CO[C@@H](C)Cn1c(=O)n(C)c2cnc3ccc(-c4cncc(C(C)(C)O)c4)cc3c21	inactive: -0.409	inactive: -1.29	inactive: -0.456
CC(/C=C/C=C(\C)c1cc(C(C)(C)C)cc(C(C)(C)C)c1)=C\C(=O)O	inactive: 0.595	inactive: 0.362	inactive: -0.27
C#C[C@]1(O)CC[C@H]2[C@@H]3CCC4=CCCC[C@@H]4[C@H]3CC[C@@]21C [Lynestrenol]		inactive: -1.52	
C#C[C@]1(O)CC[C@H]2[C@@H]3CCC4=CCCC[C@@H]4[C@H]3CC[C@@]21C	inactive: -0.306		inactive: -0.544
O=C(NC1CCN(CCc2c[nH]c3ccccc23)CC1)c1ccccc1 [indoramin]	inactive: -0.144	inactive: 0.303	inactive: 0.479
COC(=O)C1(OC(=O)c2cncn2[C@H](C)c2ccccc2)CC1 [Cyclopropyl-methoxycarbonyl metomidate]	inactive: 1.18	inactive: -0.216	inactive: 0.0712
CCOC(=O)C(C)(C)CCCOc1ccc2c(c1)C=C(c1nccn1C)CC2	inactive: 0.899	inactive: 1.34	inactive: -0.817
COc1nnc(-c2cc3c([nH]c2=O)CCN(Cc2ccccc2)C3)o1	inactive: -2.37	inactive: -1.35	inactive: 0.0102
CC(C)(CCCCCCCCCCC(C)(C)CC(=O)O)CC(=O)O	inactive: -0.42	inactive: -1.36	inactive: -0.833
CC(CCc1ccc2c(c1)OCO2)NN (stereo not given)	inactive: -0.925	inactive: -0.143	inactive: -0.0513
CCc1ccc(CCOc2ccc(Cc3sc(O)nc3O)cc2)nc1 [pioglitazone hydrochloride]		inactive: -0.547	
CCCCNCC(O)c1cc(-c2ccc(C(F)(F)F)cc2)nc(-c2ccc(C(F)(F)F)cc2)c1 (stereo not given)	inactive: -0.947	inactive: -0.0456	inactive: -0.21

16 entries from above, bar-delimited:
Compound | TEAD-luciferase reporter activity (compound concentration: 200 nM) | TEAD-luciferase reporter activity (compound concentration: 2 uM) | TEAD-luciferase reporter activity (compound concentration: 10 uM)
CCCCCCCCCCCCNCC(O)CCCCCCCCCn1c(=O)c2c(ncn2C)n(C)c1=O (stereo not given) | inactive: -0.339 | inactive: -0.317 | inactive: -0.969
CCN(CC)C(=S)SSC(=S)N(CC)CC [Disulfiram] |  | inactive: -0.124 | 
Cc1ccc(B(OC(=O)c2ncccc2O)c2cccc(Cl)c2)cc1Cl | inactive: 1.33 | inactive: -0.154 | inactive: 1.95
CCCCC/C=C\C/C=C\C/C=C\CCCCCCC(=O)O | inactive: -0.8 | inactive: -1.86 | inactive: 0.26
CCOC(=O)C1CCN(c2nc(N(C)S(=O)(=O)c3ccc(C#N)cc3)ccc2[N+](=O)[O-])CC1 | inactive: -0.417 | inactive: -0.435 | inactive: -0.484
CC(=O)NCCC(=O)N1Cc2ccccc2CC2(CCCCN2CC2CCNC2)C1 (stereo not given) | inactive: -1.3 |  | inactive: -1
CC(C)=CCC/C(C)=C/CC(C/C=C(\C)CCC=C(C)C)(P(=O)([O-])[O-])P(=O)([O-])[O-] [Digeranyl bisphosphonate] | inactive: 0.529 | inactive: 0.289 | inactive: 1.11
CCCCc1nc(Cl)c(C(=O)OC(C)OC(=O)OCC)n1Cc1ccc(-c2ccccc2-c2nn[nH]n2)cc1 (stereo not given) [Elisartan potassium] | inactive: -0.265 | inactive: -0.591 | inactive: -0.357
CC(=O)N(OCc1ccccc1)[C@@H]1c2cc(C#N)ccc2OC(C)(C)[C@H]1O | inactive: -1.01 | inactive: -0.551 | inactive: 3.18
CC[N+](C)(CC)CC(O)COCC1COc2ccccc2O1 (stereo not given) | inactive: -1.84 | inactive: 0.405 | inactive: 4.97
C[C@H](NC(=O)[C@@H](Cc1ccc2ccccc2c1)NC(=O)[C@@H](C)N)C(=O)N[C@@H](Cc1c[nH]c2ccccc12)C(=O)N[C@H](Cc1ccccc1)C(=O)N[C@@H](CCCCN)C(N)=O [Pralmorelin] | inactive: -1.27 | inactive: 1.01 | inactive: -0.547
C#C[C@]1(O)CC[C@H]2[C@@H]3CCC4=CCCC[C@@H]4[C@H]3CC[C@@]21C [Lynestrenol] |  | inactive: -1.52 | 
O=C(NC1CCN(CCc2c[nH]c3ccccc23)CC1)c1ccccc1 [indoramin] | inactive: -0.144 | inactive: 0.303 | inactive: 0.479
CCOC(=O)C(C)(C)CCCOc1ccc2c(c1)C=C(c1nccn1C)CC2 | inactive: 0.899 | inactive: 1.34 | inactive: -0.817
COc1nnc(-c2cc3c([nH]c2=O)CCN(Cc2ccccc2)C3)o1 | inactive: -2.37 | inactive: -1.35 | inactive: 0.0102
CCCCNCC(O)c1cc(-c2ccc(C(F)(F)F)cc2)nc(-c2ccc(C(F)(F)F)cc2)c1 (stereo not given) | inactive: -0.947 | inactive: -0.0456 | inactive: -0.21
